Screening data, single-dose tests

Values are the deposited “Percent Effect”, in %. The controls that fix the scale are not given in the record; negative values are as filed. Compounds were drawn at random from those tested, without regard to their results. Two or more numbers in one place are separate tests of the same structure; such repeats can differ widely.

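Growth of Mycobacterium tuberculosis over 4 days (cholesterol / DPPC medium with tyloxapol); the read-out is not stated. Concentration: 50 µM. The record gives no direction; compounds that gave an IC50 in retests scored well above the rest, so higher reads as more growth inhibition. About 69,000 compounds were tested under these conditions; 0.54% (about 370) showed 50% or more at least once.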

SMILES,effect
Cc1ccc(S(C)(=O)=O)cc1C(=O)N1CCCC(n2cncn2)C1 (stereo not drawn),3.125
COCCNc1ccc(CNCc2cnc3nc(C)cc(C)n23)cc1,-3.85
CC(C)N1CCC2(CC1)CN(C)C(=O)C[C@H]2C(F)(F)F,-14.42
Cc1nc(CN(C)C(=O)CN(C)C)nc2c1CCC(=O)N2CCC(C)C,9.822 and -32.75
CCC(CO)N(Cc1ccccc1C)Cc1ccccc1C(=O)O (stereo not drawn),8.972
O=C(c1cncs1)N1CCC(Cc2cnc3[nH]ccc3c2)CC1,-5.439
CC(=O)N1C[C@@H](F)[C@@H](OCc2nc3ccccc3o2)C1,-8.154
Cc1cc(C2CCCN(S(=O)(=O)c3cn[nH]c3)C2)ccn1 (stereo not drawn),-19.01
Cc1ccc(N2CCCC(NCC(=O)NC3CCOCC3)C2)nn1 (stereo not drawn),5.226
CCCNC1(c2ccc(Cl)cc2)CCOCC1,-14.96
CCOc1ncccc1CNS(=O)(=O)c1ccc2c(c1)CCC2,-17.9
Cc1cc(NC(C)C(=O)NCc2ccccc2)nc(-c2ccncc2)n1 (stereo not drawn),10.18
O=C(N[C@@H]1CN(Cc2ccc3cc[nH]c3c2)C[C@H]1O)c1cnccn1,4.402
Cc1cc(N(C)CCN(C)C)n2nc(C)cc2n1,29.55
CC(C)(C)N1CC(c2ncc(-c3ccc4c(c3)OCCO4)[nH]2)CC1=O (stereo not drawn),-3.687
O=C(O)C(F)(F)F.O=C(O)C(F)(F)F.O=C(O)C(F)(F)F.[H][C@@]12CN(Cc3cccnc3)C[C@]1([H])[C@H](OC)CCN2c1ncc(F)cn1,8.927
COCCOc1cc(C)ccc1NC(=O)N(C)Cc1cnn(C)c1,-17.05
COc1ccc(-c2ccnc3c2C(=O)CCC3)cc1,-9.139
[H][C@@]12CN(C(=O)N(C)C)C[C@]1([H])C(=O)N(C)C21CCN(C(=O)CC(C)C)CC1,7.576
O=C(CC1CC1)NCc1cn2c(n1)CN(CC1CC1)CC2.O=C(O)C(F)(F)F,-11.6
COc1c(CNCc2ccc3c(c2)OCCO3)c(C(C)C)nn1C,7.415
O=C(NC1CCCC1)C1Cc2nc(-c3ccsc3)sc2N1CC1CC1 (stereo not drawn),-15
Cc1ccccc1CNC(Cn1cncn1)c1ccccc1 (stereo not drawn),-5.095
CC(Nc1cccc(CN2CCOC2=O)c1)C(=O)NC(=O)NC(C)(C)C (stereo not drawn),-11.76
Cc1cc(C)cc(OCC(=O)NC2CCN(S(C)(=O)=O)CC2)c1,-18.99
Cc1nc(CN2CCCN(CC(=O)Nc3ccncc3)CC2)no1,18.5
COCCc1ncc(CN2CCC3(CCCN(CC4CC4)C3)C2)cn1 (stereo not drawn),-4.226
CCc1nnc2n1CCN(C(=O)c1cc3cc(F)ccc3[nH]1)C2,0.9792
Cc1nc(NCC2CC2)nc2c1COCC21CCNC1 (stereo not drawn),-15.09 and -11.17
Cc1ccc(CN2CC3(CCN(C(=O)c4cccnc4)C3)C2)o1.O=C(O)C(F)(F)F.O=C(O)C(F)(F)F,-15.36
COCC(=O)N[C@H]1C[C@@H](Cc2cc(CN3CCOCC3)on2)C1(C)C,-10.91
CCNC(=O)NC1CN(Cc2ccccc2N(C)C)C[C@@H]1OC (stereo partly drawn),-6.58
CC(=O)N(Cc1ncc(C(C)C)o1)C1CCN(Cc2ncc[nH]2)C1 (stereo not drawn),-13.13
CCN(CC1CCOC1)C(=O)NCc1nnc2n1CCC2 (stereo not drawn),-12.89 and -18.15
Cc1cnn(CCNCc2nccn2CC(F)(F)F)c1,20.12
Cc1ccc(C(=O)N(CC(=O)O)CC(C)C)cc1F,0.2567
CC(=O)N1CCc2c(nc(-c3cccnc3)nc2N(C)CC(O)CO)C1 (stereo not drawn),6.849
CCC[C@@H]1CN(C(=O)c2cnc3ccccc3c2)C[C@H]1NS(C)(=O)=O,-7.351
CCC(CC)n1nc(C)cc1NC(=O)C1CCOC1 (stereo not drawn),-8.245
CC(=O)N1CCN(c2cc(C3CN(C(C)=O)CCO3)nc(C)n2)CC1 (stereo not drawn),-14.56
COCCc1noc(CN2CCc3nn(C(C)C)c(=O)cc3C2)n1,-43.77
N#Cc1ccc(CNC(=O)C2=NN(c3ccccc3)C(=O)CN2)cc1,-23.65
Cc1ccc(CN(C(=O)c2cccc(NC(N)=O)c2)C2CC2)o1,5.152
Cc1ccc(CS(=O)(=O)Cc2nc(N)nc(N(C)C)n2)cc1,-9.506
COc1ccc(CN(C)[C@@H]2CN(C(=O)c3cccn3C)C[C@H]2O)cc1,39.45
Cc1nc(CN(C)C(=O)c2ccc(Cn3cnnn3)cc2)cs1,9.752
CCc1nccn1C1CCCN(C(=O)c2cnc3ccccc3n2)C1 (stereo not drawn),-9.204
CC(=O)c1cnc(NCCN2CCCC(c3ccccc3)C2)nc1C (stereo not drawn),0.6197
COCCNC(=O)c1ccc2c(=O)n3c(nc2c1)CCCCCC3,-22.94
CC(C)Oc1ccc(CN2CCCC(N3CCCC3)C2)cc1CO (stereo not drawn),13.35
COc1ccc(CN2CCOC[C@H](OCC(=O)N(C)C)C2)cc1,-0.5632
[H][C@@]12OCCN(C(=O)c3ccc(C)o3)[C@@]1([H])CC[C@H]2OC,-45.04
Cc1nc[nH]c1CN1CCN(C2CCOCC2)CC(C(N)=O)C1 (stereo not drawn),-1.776
O=C(O)c1cc(/C=C/c2ccc3ccccc3c2)ncn1,-11.03 and -7.085
CCNC(=O)CCC(=O)N1CCC(Oc2cc(C)ccc2C)CC1,19.82
COCCn1cc(C(=O)N2CCCC2c2cccc(F)c2)ccc1=O (stereo not drawn),9.759
Cn1ccnc1CN1CCCC1Cn1cccn1 (stereo not drawn),-2.365
Cc1cnc(-c2nc(NC3CCCC3)ncc2-c2onc(C)c2C)cn1,10.63
COC(=O)[C@H](C)NC(=O)Cn1ccc2ccc(F)cc21,-31.29
Cc1ccccc1C1CCCN(C(=O)c2c[nH]c(=O)c(Cl)c2)C1 (stereo not drawn),10.79
CN(Cc1ccoc1)C(=O)C1CC(=O)N(Cc2ccncc2)C1 (stereo not drawn),-2.716
O=C(O)C(F)(F)F.[H][C@@]12CN(C3CCOCC3)C[C@]1([H])OCCN2Cc1c(C)noc1C,-18.88
CN(C)C(=O)COc1ccccc1CN1CCCC2(C1)CN(C)C(=O)O2 (stereo not drawn),-0.4972 and -9.571
CC(C)(N)c1cn(C2CCN(c3ncccc3Cl)CC2)nn1,9.631
Cc1cnn(C2CCCN(C(=O)c3ccc(C(N)=O)cn3)C2)c1 (stereo not drawn),-33.36
O=C(COCC(=O)N(c1ccccc1)c1ccccc1)N1CCOCC1,11.47
Cc1nc(C(C)C)sc1C(C)N(C)C(=O)c1ccc(=O)n(C)c1 (stereo not drawn),37.29
CCn1ccc(NS(=O)(=O)c2cccc(COC)c2)n1,-24.67
NC(=O)CN1CCCN(C(=O)Cc2cccc(C(F)(F)F)c2)CC1,-7.879
Cc1cnc(NC(=O)N2CCCCCC2)s1,-17.09
CCc1c(-c2ccccc2)nc2c(c(C)c(C)n2CCN(C)C)c1N,19.29
c1ccc(-c2nc3c(c(NCCc4c[nH]cn4)n2)CCNC3)cc1,34.1 and 23.76
NC(=O)c1cc(C2CCCN(C(=O)CCc3ccccn3)C2)n[nH]1 (stereo not drawn),-7.685
CN(C)c1ncnc2c1CCN(S(=O)(=O)c1cccc3nsnc13)C2,-9.164
CCNC(=O)C1CCCN(Cn2nc(C(C)(C)C)ccc2=O)C1 (stereo not drawn),-18.12
COc1ncc(CN(CCN(C)C)Cc2ccc(C)s2)cn1,-25.98
Cc1nc(NC2CCCCC2)cc(C2CCCNC2)n1.Cl (stereo not drawn),-11.87 and 11.61
COc1cccc(CCCN2CCC(N(C)S(C)(=O)=O)CC2)c1,-21.19
Cc1nc(C)n(CC2CCCN(Cc3nnc(C(C)(C)C)o3)C2)n1 (stereo not drawn),1.286
CC(C)n1c(C(=O)N2CCCC2)nc2c1CCN(c1ncccn1)C2,10.57
[H][C@@]12COC[C@]1([H])[C@@H](OCCN(C)C)CN2C(=O)c1ccc(C#N)cc1,-14.31
N#Cc1ccc(C(=O)N2CCn3cc(CN4CCCCC4)nc3C2)cc1,15.13 and -22.87
Cc1ccc(C(=O)NS(=O)(=O)c2ccccc2Cl)c(=O)[nH]1,-0.6368
O=C(CC1CCC2(CC1)CCN(Cc1nccs1)CC2)N1CC=CC1,14.43
CC(C)N1CCCC2(CCN(C(=O)COCC(F)(F)C(F)F)C2)C1=O (stereo not drawn),-9.443
O=C(Cn1ccnc1)N(CCO)CCSc1ccc(Cl)cc1,-3.453
CCN(CC)C(=O)Cc1csc(C(C)C)n1,-17.1
COCC1CN(Cc2ccccn2)Cc2cn(C)nc21.O=C(O)C(F)(F)F.O=C(O)C(F)(F)F.O=C(O)C(F)(F)F (stereo not drawn),-19.31
CCc1cc(O)nc(C2CCCN2C(=O)c2cc(C)no2)n1 (stereo not drawn),-24.51
O=C(O)C(F)(F)F.[H][C@@]12CCN(CCc3ccccc3)C[C@]1([H])[C@H](C(=O)N(C)C)CCO2,11.68 and -0.8332
CNS(=O)(=O)c1cccc(C(C)NCc2ccco2)c1 (stereo not drawn),-5.37
CN1CCC(N(C)c2ccccc2CNCc2ccco2)CC1,2.347

Repeated from the top, 6 entries:

* Cc1ccc(S(C)(=O)=O)cc1C(=O)N1CCCC(n2cncn2)C1 (stereo not drawn) | 3.125%
* COCCNc1ccc(CNCc2cnc3nc(C)cc(C)n23)cc1 | -3.85%
* CC(C)N1CCC2(CC1)CN(C)C(=O)C[C@H]2C(F)(F)F | -14.42%
* Cc1nc(CN(C)C(=O)CN(C)C)nc2c1CCC(=O)N2CCC(C)C | 9.822% and -32.75%
* CCC(CO)N(Cc1ccccc1C)Cc1ccccc1C(=O)O (stereo not drawn) | 8.972%
* O=C(c1cncs1)N1CCC(Cc2cnc3[nH]ccc3c2)CC1 | -5.439%

Source: ChEMBL document CHEMBL3988442, “University of Dundee, Small-Polar-MMV Screening Library” (2021).